Not every detail of the peptide structures is certain; ends, links or a residue may be inferred. Residues, ends and D or L forms follow the SMILES beside them.
Test: PSA peptide solubility testing (turbidity)
Settings: 10 mM succinate, 5% glycine, pH 5.0; PSA 1-40 at 3 mg/ml, other 5 peptides at 7.5 mg/ml, combined 1 mg/ml/peptide; control 0.037

| SMILES | Turbidity reading at 630 nm |
| --- | --- |
| CC[C@H](C)[C@H](NC(=O)[C@H](Cc1c[nH]c2ccccc12)NC(=O)[C@H](CCCCN)NC(=O)[C@H](CCCNC(=N)N)NC(=O)[C@H](Cc1ccc(O)cc1)NC(=O)[C@H](Cc1c[nH]cn1)NC(=O)[C@@H](NC(=O)[C@@H](NC(=O)[C@H](CCCCN)NC(=O)[C@@H](NC(=O)[C@H](Cc1ccc(O)cc1)NC(=O)[C@H](CC(C)C)NC(=O)[C@H](CO)NC(C)=O)[C@@H](C)O)C(C)C)C(C)C)C(=O)N[C@@H](CCCCN)C(=O)N[C@@H](CC(=O)O)C(=O)N[C@H](C(=O)N[C@H](C(=O)N[C@H](C(=O)N[C@@H](C)C(=O)N[C@@H](CC(N)=O)C(=O)N1CCC[C@H]1C(N)=O)C(C)C)[C@@H](C)CC)[C@@H](C)O [PSA 241-261, SLYTKVVHYR KWIKDTIVAN P] (Ac-SLYTKVVHYRKWIKDTIVANP-NH2; N-terminus and C-terminus assumed) | 0.143 |
| CC[C@H](C)[C@H](NC(=O)[C@H](Cc1c[nH]c2ccccc12)NC(=O)[C@@H](NC(=O)[C@@H](NC(=O)[C@H](CO)NC(=O)[C@H](CC(C)C)NC(=O)[C@@H](NC(=O)[C@H](CC(C)C)NC(=O)[C@H](Cc1ccccc1)NC(=O)[C@@H](NC(=O)[C@@H](NC(=O)[C@@H]1CCCN1C(=O)[C@@H](NC(=O)[C@H](Cc1c[nH]c2ccccc12)NC(=O)[C@H](CCSC)NC(C)=O)C(C)C)C(C)C)C(C)C)[C@@H](C)O)C(C)C)[C@@H](C)O)C(=O)NCC(=O)N[C@@H](C)C(=O)N[C@@H](C)C(=O)N1CCC[C@H]1C(=O)N[C@@H](CC(C)C)C(=O)N[C@H](C(=O)N[C@@H](CC(C)C)C(=O)N[C@@H](CO)C(=O)N[C@@H](CCCNC(=N)N)C(=O)N[C@H](C(=O)N[C@H](C(=O)NCC(=O)NCC(=O)N[C@@H](Cc1c[nH]c2ccccc12)C(=O)N[C@@H](CCC(=O)O)C(=O)N[C@@H](CS)C(=O)N[C@@H](CCC(=O)O)C(=O)N[C@@H](CCCCN)C(=O)N[C@@H](Cc1c[nH]cn1)C(=O)N[C@@H](CO)C(=O)N[C@@H](CCC(N)=O)C(=O)N1CCC[C@H]1C(=O)N[C@@H](Cc1c[nH]c2ccccc12)C(=O)N[C@@H](CCC(N)=O)C(=O)N[C@H](C(N)=O)C(C)C)C(C)C)[C@@H](C)CC)[C@@H](C)CC [PSA 1-40, MWVPVVFLTLSVTWIGAAPLILSRIVGGWECEKHSQPWQV] (Ac-MWVPVVFLTLSVTWIGAAPLILSRIVGGWECEKHSQPWQV-NH2; N-terminus and C-terminus assumed) | 0.695 |
| CC[C@H](C)[C@H](NC(=O)[C@H](CS)NC(=O)[C@H](Cc1c[nH]cn1)NC(=O)[C@H](C)NC(=O)[C@H](C)NC(=O)[C@@H](NC(=O)[C@H](CC(C)C)NC(=O)[C@@H](NC(=O)[C@H](Cc1c[nH]c2ccccc12)NC(=O)[C@H](CCC(N)=O)NC(=O)[C@@H]1CCCN1C(=O)[C@H](Cc1c[nH]cn1)NC(=O)[C@@H](NC(=O)[C@H](CC(C)C)NC(=O)[C@@H](NC(=O)CNC(=O)CNC(=O)[C@H](CS)NC(=O)[C@@H](NC(=O)[C@H](C)NC(=O)[C@H](CCCNC(=N)N)NC(=O)CNC(=O)[C@H](CCCNC(=N)N)NC(=O)[C@H](CO)NC(=O)[C@H](C)NC(=O)[C@@H](NC(=O)[C@H](CC(C)C)NC(C)=O)C(C)C)C(C)C)C(C)C)C(C)C)C(C)C)[C@@H](C)O)C(=O)N[C@@H](CCCNC(=N)N)C(=O)N[C@@H](CC(N)=O)C(=O)N[C@@H](CCCCN)C(=O)N[C@@H](CO)C(=O)N[C@H](C(=O)N[C@H](C(=O)N[C@@H](CC(C)C)C(=O)N[C@@H](CC(C)C)C(=O)NCC(=O)N[C@@H](CCCNC(=N)N)C(=O)N[C@@H](Cc1c[nH]cn1)C(=O)N[C@@H](CO)C(=O)N[C@@H](CC(C)C)C(N)=O)[C@@H](C)CC)C(C)C [PSA 41-80, LVASRGRAVCGGVLVHPQWVLTAAHCIRNKSVILLGRHSL] (Ac-LVASRGRAVCGGVLVHPQWVLTAAHCIRNKSVILLGRHSL-NH2; N-terminus and C-terminus assumed) | 0.041 |

— patent US20180028627A1, “TREATMENT VACCINE FOR PROSTATE CANCER” (Bioventures, LLC, priority 2015, published 2018)
